Assay results as given in article PMC10849766.

Columns and labels:
[1] = molecular target: T1, Vascular endothelial (VE)-cadherin (human (endogenous in HBMECs)) (UniProt P33151); test: affinity purification with mass spectrometry; IP with anti-VE-cadherin antibody and quantitative (label-free) LC-MS; HBMECs under hypoxia plus IL-1β for 24 hours with or without rhTIMP2
T1 sequence: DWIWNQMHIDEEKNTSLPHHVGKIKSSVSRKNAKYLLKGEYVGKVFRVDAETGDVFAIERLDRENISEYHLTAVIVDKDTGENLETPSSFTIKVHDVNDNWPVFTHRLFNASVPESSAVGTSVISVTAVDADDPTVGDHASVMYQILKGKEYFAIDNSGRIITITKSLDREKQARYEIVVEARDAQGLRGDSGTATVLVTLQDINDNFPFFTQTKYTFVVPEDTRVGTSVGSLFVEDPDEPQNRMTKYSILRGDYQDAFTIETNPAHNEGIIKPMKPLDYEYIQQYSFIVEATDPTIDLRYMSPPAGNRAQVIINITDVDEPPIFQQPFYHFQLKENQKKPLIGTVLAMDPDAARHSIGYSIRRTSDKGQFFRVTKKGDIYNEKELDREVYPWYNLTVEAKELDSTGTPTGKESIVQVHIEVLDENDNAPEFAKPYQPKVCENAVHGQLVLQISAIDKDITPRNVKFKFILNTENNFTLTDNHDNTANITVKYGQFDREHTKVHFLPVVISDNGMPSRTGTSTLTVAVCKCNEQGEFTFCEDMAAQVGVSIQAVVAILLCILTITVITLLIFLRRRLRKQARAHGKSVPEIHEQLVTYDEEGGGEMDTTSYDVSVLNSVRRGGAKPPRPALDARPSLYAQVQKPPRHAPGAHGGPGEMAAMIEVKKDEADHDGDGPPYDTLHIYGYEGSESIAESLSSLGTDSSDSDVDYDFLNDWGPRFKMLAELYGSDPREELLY

[2] = molecular target: T2, Vascular endothelial (VE)-cadherin (human (endogenous in HBMECs)), P33151; test: as above; settings: remark: other sources report otherwise
T2 chain: T1 sequence

binding [1]: binds
Molecule: α-catenin (human (endogenous in HBMECs))

binding [2]: binds
B1: β-catenin, P35222 1-781 (protein)
chain: MATQADLMELDMAMEPDRKAAVSHWQQQSYLDSGIHSGATTTAPSLSGKGNPEEEDVDTSQVLYEWEQGFSQSFTQEQVADIDGQYAMTRAQRVRAAMFPETLDEGMQIPSTQFDAAHPTNVQRLAEPSQMLKHAVVNLINYQDDAELATRAIPELTKLLNDEDQVVVNKAAVMVHQLSKKEASRHAIMRSPQMVSAIVRTMQNTNDVETARCTAGTLHNLSHHREGLLAIFKSGGIPALVKMLGSPVDSVLFYAITTLHNLLLHQEGAKMAVRLAGGLQKMVALLNKTNVKFLAITTDCLQILAYGNQESKLIILASGGPQALVNIMRTYTYEKLLWTTSRVLKVLSVCSSNKPAIVEAGGMQALGLHLTDPSQRLVQNCLWTLRNLSDAATKQEGMEGLLGTLVQLLGSDDINVVTCAAGILSNLTCNNYKNKMMVCQVGGIEALVRTVLRAGDREDITEPAICALRHLTSRHQEAEMAQNAVRLHYGLPVVVKLLHPPSHWPLIKATVGLIRNLALCPANHAPLREQGAIPRLVQLLVRAHQDTQRRTSMGGTQQQFVEGVRMEEIVEGCTGALHILARDVHNRIVIRGLNTIPLFVQLLYSPIENIQRVAAGVLCELAQDKEAAEAIEAEGATAPLTELLHSRNEGVATYAAAVLFRMSEDKPQDYKKRLSVELTSSLFRTEPMAWNETADLGLDIGAQGEPLGYRQDDPSYRSFHSGGYGQDALGMDPMMEHEMGGHHPGADYPVDGLPDLGHAQDLMDGLPPGDSNQLAWFDTDL

Results are given in words; binding and its absence hold for the method and conditions named. Binding seen in cells or lysates may run through a third protein. Here binding means that the protein was enriched with, or labelled near, the bait; the list need not be complete. Each block holds one molecule with its values, some of them ahead of it.
